These results are taken from PubChem BioAssay AID623959 (National Center for Advancing Translational Sciences (NCATS), 2012).

Sequences of proteins named here, by UniProt entry; tags and fusion partners are left off.
UniProt Q8NER1, whole entry, looked up: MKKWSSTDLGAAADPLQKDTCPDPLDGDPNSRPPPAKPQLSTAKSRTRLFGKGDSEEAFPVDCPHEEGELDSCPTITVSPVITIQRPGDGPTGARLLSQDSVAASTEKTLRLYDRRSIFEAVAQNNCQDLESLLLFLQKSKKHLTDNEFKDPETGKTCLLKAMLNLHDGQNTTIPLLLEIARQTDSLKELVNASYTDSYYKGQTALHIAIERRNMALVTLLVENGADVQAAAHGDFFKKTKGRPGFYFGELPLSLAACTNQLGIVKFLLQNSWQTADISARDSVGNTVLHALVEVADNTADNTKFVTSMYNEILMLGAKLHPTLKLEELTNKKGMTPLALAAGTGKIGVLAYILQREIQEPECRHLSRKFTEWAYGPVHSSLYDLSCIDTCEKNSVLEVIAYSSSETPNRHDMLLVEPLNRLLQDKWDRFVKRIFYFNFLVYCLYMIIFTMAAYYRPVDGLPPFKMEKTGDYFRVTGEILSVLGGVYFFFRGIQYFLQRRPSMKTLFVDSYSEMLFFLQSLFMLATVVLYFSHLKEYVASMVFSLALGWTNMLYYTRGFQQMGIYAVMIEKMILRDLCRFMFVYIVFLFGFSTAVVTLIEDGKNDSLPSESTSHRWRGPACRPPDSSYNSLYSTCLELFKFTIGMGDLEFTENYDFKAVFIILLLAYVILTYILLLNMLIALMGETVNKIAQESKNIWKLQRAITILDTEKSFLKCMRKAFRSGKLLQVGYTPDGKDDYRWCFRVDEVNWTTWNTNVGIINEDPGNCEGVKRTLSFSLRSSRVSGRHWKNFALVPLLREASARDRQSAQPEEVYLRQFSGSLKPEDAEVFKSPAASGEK

Out of some 1,400 compounds screened, fewer than 10 were called active. Roughly 8% stayed inconclusive and do not appear here. The call rests on the fitted dose curve; in most records, active means well fitted curve in the direction sought with a large enough effect; inconclusive means small, poorly fitted or top-dose-only effect, or another doubt; inactive means no such curve, though single readings can be large or run the other way. Some of the results follow.

The target in the assay is Transient receptor potential cation channel subfamily V member 1 (Homo sapiens) (UniProt Q8NER1). The experiment in a line: qHTS Assay for Compounds that Act as Potentiators of the Vanilloid Receptor 1: Hit Validation. Further: % of control where 0% means no effect. The conditions noted are these: TRPV1-expressing cells, Fluo-8 calcium influx, capsaicin EC20; series mostly up to 42.1 µM; activity change, positive = potentiation: at the top concentration. In a few lines:
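Calcium influx via Fluo-8 fluorescence (480/520 nm) on FDSS: 10 s baseline, 3 min compound read, 2 min read after EC20 capsaicin. TRPV1-expressing cells plated 2000/well, grown overnight at 35.5 °C.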
Background: In qHTS, concentration-response curves come from the screen itself.
Consider `O=C1N/C(=C/c2cccs2)C(=O)N1Cc1ccc(Br)cc1`, for which the “activity change, positive = potentiation” value is inactive: -8.53%. With `CSc1ccccc1C(=O)N1CCCC(CNC(=O)c2ccc(F)cc2)C1` (centres undefined) the figure was inactive: -5.38%. With `CC(=O)c1cccc(Nc2nc(-c3ccccc3)nc3ccccc23)c1` the figure was inactive: -6.61%; with `CC(C)(C)C(=O)Nc1cccc(-c2nc3ccccc3[nH]2)c1`, inactive: 7.02%.

For the compound `COC(=O)c1sccc1NC(=O)CSc1ccccc1NS(=O)(=O)c1ccccc1Cl`, the “activity change, positive = potentiation” value is inactive: -5.58%. With `COCCCNC(=O)Cn1cc(C(=O)C2CC2)c2ccccc21` the figure was inactive: -4.57%; with `COc1ccc(C(=O)Nc2ccc3ccccc3c2)cc1`, inactive: -32.9%; with `CCn1cc(C(=O)NCCc2ccccc2)c(=O)c2cc(S(=O)(=O)N3CCCC3)ccc21`, inactive: -38.5%. For the compound `COc1ccc(C2=NCCn3nc4cc(OC)ccc4c32)cc1`, the “activity change, positive = potentiation” value was inactive: 3.66%. Under `O=[N+]([O-])c1ccc(/C=C/c2nc3ccc([N+](=O)[O-])cc3[nH]2)cc1` stands inactive: -7.44%; under `Cc1cc(NC(=O)C(C)C)ncc1NC(=O)c1cccc(F)c1`, inactive: -6.46%. With `CC(C)(C)c1ccc(/C=C/C(=O)Nc2cccnc2)cc1` the figure was inactive: -39.1%; with `CN(C(=O)CC(=O)Nc1ccc(Cl)c(Cl)c1)c1ccccc1`, inactive: -10.8%; with `O=C(N1CCOCC1)N1CCN(c2ccccc2F)CC1`, inactive: -38%. Under `COc1cccc(OCCNC(=O)c2cc(OC)c(OC)c(OC)c2)c1` stands inactive: 7.86%; under `Cc1nc(Nc2cccc(F)c2)c2oc3ccccc3c2n1`, inactive: -37%; under `N#C/C(=N\Nc1ccc([N+](=O)[O-])cc1)C(=N)N1CCOCC1`, inactive: -13.4%. On to `COCCn1cnnc1SCC(=O)Nc1cc(OC)c([N+](=O)[O-])cc1C`, for which the “activity change, positive = potentiation” value was inactive: -6.14%. Under `COc1ccc(NS(=O)(=O)c2cc(NC(=O)c3ccc(C)s3)ccc2N2CCOCC2)cc1` stands inactive: -38.4%; under `CC(C)(C)c1ccc(NC(=S)NCc2cccnc2)cc1`, inactive: -26.5%; under `Cc1nc2ccc(NC(=O)c3ccc([N+](=O)[O-])cc3[N+](=O)[O-])cc2s1`, inactive: -0.43%. With `Cc1ccc2oc(C(=O)NCC3CCOCC3)c(C)c2c1` the figure was inactive: -38.8%; with `O=C(c1ccc(-c2cccc(C(F)(F)F)c2)o1)N1CCOCC1`, inactive: -36.7%.

In the case of `COC(=O)[C@H](C)NC(=O)c1cc2c(cn1)[nH]c1ccccc12`, the “activity change, positive = potentiation” value was inactive: 11%.

In the case of `O=C(COC(=O)c1nsc(Cl)c1Cl)NC1CCCCC1`, the “activity change, positive = potentiation” value was inactive: -2.6%. Under `CCc1ccc(/C=C2/SC(N3CCOCC3)=NC2=O)cc1` stands inactive: -37.3%. With `CCn1c(Cc2c(C)[nH]c3ccccc23)nnc1SCC(=O)NCc1ccccc1` the figure was inactive: 12.1%; with `CC(C)CN(C(=O)COC(=O)CNC(=O)c1sc2ccccc2c1Cl)C1CCS(=O)(=O)C1` (centres undefined), inactive: 10.5%. With `CN1C(=O)/C(=C/c2cccc(Cl)c2)Sc2ccc(C(=O)NCc3cccnc3)cc21` the figure was inactive: -3.84%; with `CCc1ccc(NC(=O)C2CCCN(S(=O)(=O)c3c(C)[nH]c(=O)[nH]c3=O)C2)cc1` (centres undefined), inactive: -5.4%. Regarding `Cc1cc(N2CCOCC2)nc2ccc(Cl)cc12`, the “activity change, positive = potentiation” value was inactive: -1.08%. Under `COc1ccc2c(c1)C(c1ccc(Cl)cc1)NC(=O)C2` (centres undefined) stands inactive: -5.08%; under `NCC(O)COc1ccc2c(c1)OCO2` (centres undefined), inactive: -3.55%; under `COC(=O)C(C(=O)Nc1nc2ccccc2s1)C1CCCC1` (centres undefined), inactive: -7.89%. Under `Cc1ccc2cc(C(=O)O)c(C)nc2c1` stands inactive: 0.282%; under `CCC(=O)N1CCc2cc(Br)cc(S(=O)(=O)NC3CCN(Cc4ccccc4)CC3)c21`, inactive: 0.77%. With `O=C(Nc1ccccc1)O/N=C/c1ccc(F)cc1` the figure was inactive: 7.23%; with `CC(C)=NOCC(=O)Nn1c(COc2ccccc2)nc2ccccc2c1=O`, inactive: 4.02%; with `CCN(CC)S(=O)(=O)c1cc(NC(=O)c2ccc(Br)s2)ccc1C`, inactive: -38.1%.

With `CCc1c(C)nc(N2CCN(c3ccc(Cl)cc3)CC2)[nH]c1=O`, the “activity change, positive = potentiation” value was inactive: 5.91%. Under `COc1ccc(NS(=O)(=O)c2cc(NC(=O)c3cnc(C)cn3)ccc2N2CCCCC2)cc1` stands inactive: -38%; under `CC1CCCN(c2ccc(C(=O)Nc3cccnc3)cc2[N+](=O)[O-])C1` (centres undefined), inactive: -39.7%. With `NNC(=O)C1COc2cc3ccccc3cc2O1` (centres undefined) the figure was inactive: -31.3%. With `CC(=O)c1ccc(NC(=O)N2CCN(c3ccc(C)cc3)C(C)C2)cc1` (centres undefined) the figure was inactive: -39.5%; with `OCC1(CCc2ccccc2)CCCN(C/C=C/c2ccccc2)C1` (centres undefined), inactive: -14.6%; with `COc1ccc(CC(=O)Nc2ccc(S(=O)(=O)N3CCCCC3)cc2)cc1OC`, inactive: -36.2%. Turning to `CCOC(=O)c1sc(NC(=O)CN2CC(C)OC(C)C2)nc1C` (centres undefined), the “activity change, positive = potentiation” value was inactive: -7.7%. Take `CCCn1c(SC(C)C(=O)N2CCOCC2)nc2ccc(Br)cc2c1=O` (centres undefined): the “activity change, positive = potentiation” value was inactive: -38.5%.

`N#Cc1cc(C(=O)c2cc(Cl)ccc2O)cn(CC2CCCO2)c1=O` (centres undefined): the “activity change, positive = potentiation” value was inactive: -5.19%. Take `Cc1ccccc1C(=O)NCCCNC(=O)c1ccccn1`: the “activity change, positive = potentiation” value was inactive: -5.24%. For the compound `N#Cc1c(-c2ccccc2)cc(-c2ccccc2)nc1SCCC(=O)O`, the “activity change, positive = potentiation” value was inactive: 1%. With `COc1ccc(-n2nc(C(=O)O)cc2-c2ccccc2)cc1` the figure was inactive: 4.13%; with `c1ccc(-n2ncc3c(NCc4ccc5c(c4)OCO5)ncnc32)cc1`, inactive: -4.32%; with `O=C(Nc1ccc(S(=O)(=O)Nc2ccccn2)cc1)c1cccc([N+](=O)[O-])c1`, inactive: 0.669%.
